Results reported in publication PMC11225310.
These are yes or no findings as the source states them, for the method shown. Binding seen in cells or lysates may run through a third protein. These calls come from enrichment with a bait or labelling near it, and not all partners need be listed.

Protein sequences, listed by entry. Tags and fused reporters are not part of them.
UniProt Q14680: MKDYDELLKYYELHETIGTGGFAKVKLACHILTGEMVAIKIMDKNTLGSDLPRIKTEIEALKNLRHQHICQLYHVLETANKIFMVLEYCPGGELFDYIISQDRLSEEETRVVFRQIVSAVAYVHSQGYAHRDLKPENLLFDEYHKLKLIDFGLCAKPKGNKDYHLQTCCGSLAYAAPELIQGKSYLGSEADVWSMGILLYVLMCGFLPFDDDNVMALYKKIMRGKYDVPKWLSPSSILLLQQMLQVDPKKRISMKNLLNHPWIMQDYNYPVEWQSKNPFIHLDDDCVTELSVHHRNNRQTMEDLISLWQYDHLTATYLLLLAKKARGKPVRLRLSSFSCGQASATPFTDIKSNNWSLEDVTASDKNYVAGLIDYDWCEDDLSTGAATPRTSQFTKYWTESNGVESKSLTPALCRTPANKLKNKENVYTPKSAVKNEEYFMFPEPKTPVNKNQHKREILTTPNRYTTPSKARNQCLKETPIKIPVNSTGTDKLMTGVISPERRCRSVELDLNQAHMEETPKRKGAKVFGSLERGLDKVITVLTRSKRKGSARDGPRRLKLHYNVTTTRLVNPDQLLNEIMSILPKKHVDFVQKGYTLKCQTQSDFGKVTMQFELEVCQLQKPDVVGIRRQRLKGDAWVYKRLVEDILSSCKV
UniProt P40763: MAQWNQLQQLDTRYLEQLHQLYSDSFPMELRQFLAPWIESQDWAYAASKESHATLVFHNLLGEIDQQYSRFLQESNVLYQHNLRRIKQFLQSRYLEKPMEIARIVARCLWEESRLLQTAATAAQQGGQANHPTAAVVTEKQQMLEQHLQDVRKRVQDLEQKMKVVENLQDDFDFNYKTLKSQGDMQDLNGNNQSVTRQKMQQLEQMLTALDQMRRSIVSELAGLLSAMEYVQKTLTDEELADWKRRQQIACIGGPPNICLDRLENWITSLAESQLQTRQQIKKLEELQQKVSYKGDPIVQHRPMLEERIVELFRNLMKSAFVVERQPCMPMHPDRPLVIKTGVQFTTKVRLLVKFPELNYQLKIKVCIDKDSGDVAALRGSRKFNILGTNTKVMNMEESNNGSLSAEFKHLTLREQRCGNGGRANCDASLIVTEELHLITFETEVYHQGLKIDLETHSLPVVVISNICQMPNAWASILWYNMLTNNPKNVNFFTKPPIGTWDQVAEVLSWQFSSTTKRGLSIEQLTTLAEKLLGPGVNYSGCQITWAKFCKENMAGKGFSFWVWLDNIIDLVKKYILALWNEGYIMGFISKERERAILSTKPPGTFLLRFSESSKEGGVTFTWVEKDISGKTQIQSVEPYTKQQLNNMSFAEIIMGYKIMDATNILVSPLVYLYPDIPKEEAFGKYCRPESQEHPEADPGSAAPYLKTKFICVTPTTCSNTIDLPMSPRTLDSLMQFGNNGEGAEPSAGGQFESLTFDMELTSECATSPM

Target: FLAG-tagged MELK (UniProt Q14680)
Assay: affinity purification with mass spectrometry; lysate of 293T cells expressing FLAG-MELK on a FLAG column, 4 °C for 4 h; IP buffer (20 mM Tris-HCl pH 8.0, 150 mM NaCl, 2 mM EDTA, 1% Nonidet P-40); eluted with FLAG peptides; SDS-PAGE, silver staining, LC-MS/MS of gel bands; compared with vector-transfected cells

STAT3 (in 293T cells) (from UniProt P40763 1-770)
binding: binds
